Series [1] addresses DNMT3A full length (Homo sapiens) (UniProt Q9Y6K1). Nature of the series: fluorescence anisotropy. To be noted: DNMT3A titrated to 15 nM DNA, no mononucleosomes; Fluorescence anisotropy (ex 485 nm, em 520 nm), 5 min incubation at room temperature; binding buffer; recombinant protein; residues 1-912; label: 5' 6-FAM on top strand.
Series [2] deals with DNMT3A full length + human mononucleosome (unmodified). Nature of the series: fluorescence anisotropy. The conditions noted are these: preformed DNMT3A-mononucleosome complex titrated to 15 nM DNA, larger FA change than DNMT3A only; Fluorescence anisotropy (ex 485 nm, em 520 nm), 5 min incubation at room temperature; binding buffer; recombinant protein; label: 5' 6-FAM on top strand. In general terms: Fluorescence polarisation rises when a labelled molecule tumbles more slowly, as on binding a larger partner.

For at least one entry, the source does not settle the construct or the ends of the probe. For some assays here: At least one verdict was read from the data and is not stated in words by the source.

As for “TGGATATCTAGGGGCGCTATGATATCT (double strand) [GCbox30]”, the binding result in series [1] and in series [2] was “binds” throughout.

The values above are taken from PMC7948466.
